Test results reported in the supplement of paper PMC8975748.
Counter-ions that a name gives are not always drawn. ± gives the standard deviation of the averaged measurements. Some of the results follow. Values are raw readings; no control value is given beside them.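 The yeast community starts from one strain carrying four plasmids, each with an amino-acid or uracil synthesis gene and a fluorescent protein. Random plasmid loss creates mixed prototroph and auxotroph subpopulations. Cells were fixed and counted by automated confocal fluorescence imaging, and DMSO-treated wells served as the vehicle reference.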

Tested on: Saccharomyces cerevisiae BY4741 SeMeCo community
Test: imaged cell count per well (cells); higher = more cells
Details: 10 µM; 24 h; SM minimal medium
Protocol: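 Same SeMeCo high-content imaging drug screen: Selleck FDA-approved drugs at 10 µM, 24 h in SM medium, 384-well plates, 3 replicates.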

Row | Structure (SMILES) | imaged cell count per well
1 | CC(C(=O)O)c1ccc(C(=O)c2cccs2)cc1 (stereo not drawn) [Suprofen] | 23800 ± 4500
2 | Cc1c(S(=O)(=O)O)oc2c1C(=O)C(=O)c1c-2ccc2c1CCCC2(C)C [Tanshinone IIA sulfonate (sodium)] | 15900 ± 5900
3 | COc1ccc2c3c1O[C@H]1C[C@@H](O)C=C[C@@]31CCN(C)C2 [Galanthamine] | 21200 ± 1800
4 | CN(CCOc1ccc(NS(C)(=O)=O)cc1)CCc1ccc(NS(C)(=O)=O)cc1 [Dofetilide] | 26100 ± 5100
5 | Cc1cccc(C)c1NC(=O)C1CCCCN1C (stereo not drawn) [Mepivacaine] | 23300 ± 12000
6 | CCCCCCCN(CC)CCCC(O)c1ccc(NS(C)(=O)=O)cc1 (stereo not drawn) [Ibutilide Fumarate] | 22600 ± 5600
7 | CO/N=C(\C(=O)N[C@@H]1C(=O)N2C(C(=O)O)=C(COC(N)=O)CS[C@H]12)c1ccco1 [Cefuroxime sodium] | 26700 ± 500
8 | C/C=C1\[C@H]2C=C(C)C[C@]1(N)c1ccc(=O)[nH]c1C2 [(-)-Huperzine A (HupA)] | 31100 ± 6800
9 | CCOC(=O)c1c(CSc2ccccc2)n(C)c2cc(Br)c(O)c(CN(C)C)c12 [Arbidol HCl] | 15200 ± 1800
10 | CC(C(=O)O)c1ccc2c(c1)[nH]c1ccc(Cl)cc12 (stereo not drawn) [Carprofen] | 14800 ± 3400
11 | COc1cc(N)c(Cl)cc1C(=O)NC1CCN(CCCOc2ccc(F)cc2)CC1OC (stereo not drawn) [Cisapride] | 31200 ± 5100
12 | CO/N=C(/C(=O)N[C@@H]1C(=O)N2C(C(=O)OCOC(=O)C(C)(C)C)=C(C)CS[C@H]12)c1csc(N)n1 [Cefetamet pivoxil hydrochloride] | 22100 ± 4700
13 | CN(C)CCn1nnnc1SCC1=C(C(=O)O)N2C(=O)[C@@H](NC(=O)Cc3csc(N)n3)[C@H]2SC1 [Cefotiam hydrochloride] | 25200 ± 3400
14 | COc1ccc2c3c1O[C@H]1C[C@@H](O)C=C[C@@]31CCN(C)C2 [Galanthamine HBr] | 30600 ± 1600
15 | CCN1CCN(c2cc3c(cc2F)c(=O)c(C(=O)O)cn3C2CC2)CC1 [Enrofloxacin] | 27100 ± 2600
16 | CC(NCCC(c1ccccc1)c1ccccc1)c1ccccc1 (stereo not drawn) [Fendiline hydrochloride] | 28900 ± 4200
17 | CCN[C@@H]1C[C@H](N)[C@@H](O[C@H]2OC(CN)=CC[C@H]2N)[C@H](O)[C@H]1O[C@H]1OC[C@](C)(O)[C@H](NC)[C@H]1O [Netilmicin Sulfate] | 20100 ± 4600

Row | Structure (SMILES) | imaged cell count per well
18 | CCN(CC)CCOC(=O)c1ccc(N)cc1 [Procaine HCl] | 22400 ± 6700
19 | OC(c1ccccc1)(c1ccccc1)C12CC[N+](CCOCc3ccccc3)(CC1)CC2 [Umeclidinium bromide] | 23000 ± 1800
20 | COc1ccc(Cl)cc1C(=O)NCCc1ccc(S(=O)(=O)NC(=O)NC2CCCCC2)cc1 [Glyburide (Glibenclamide)] | 25900 ± 3400
21 | CC(C)COCC(CN(Cc1ccccc1)c1ccccc1)N1CCCC1 (stereo not drawn) [Bepridil hydrochloride] | 16700 ± 4900
22 | CN1CCOC(c2ccccc2)c2ccccc2C1 (stereo not drawn) [Nefopam HCl] | 21700 ± 7300
23 | Cc1ccc2c(Cl)cc(Cl)c(O)c2n1 [Chlorquinaldol] | 547 ± 320
24 | Nc1ccc2cc3ccc(N)cc3nc2c1 [Proflavine Hemisulfate] | 21200 ± 3900
25 | CCN(Cc1ccncc1)C(=O)C(CO)c1ccccc1 (stereo not drawn) [Tropicamide] | 23000 ± 3900
26 | COc1cc(NS(=O)(=O)c2ccc(N)cc2)ncn1 [Sulfamonomethoxine] | 25400 ± 4800
27 | NC[C@H]1O[C@H](O[C@H]2[C@H](O)[C@@H](O[C@H]3O[C@H](CO)[C@@H](O)[C@H](N)[C@H]3O)[C@H](N)C[C@@H]2N)[C@H](O)[C@@H](O)[C@@H]1O [Kanamycin sulfate] | 27100 ± 10000
28 | NC1CCN(c2nc3c(cc2F)c(=O)c(C(=O)O)cn3-c2ccc(F)cc2F)C1 (stereo not drawn) [Tosufloxacin p-Toluenesulfonate Hydrate] | 26400 ± 6900
29 | CO[C@@]1(NC(=O)CSC[C@@H](N)C(=O)O)C(=O)N2C(C(=O)O)=C(CSc3nnnn3C)CS[C@@H]21 [Cefminox Sodium] | 22600 ± 9800
30 | CC[C@H](C)C(=O)O[C@H]1C[C@@H](C)C=C2C=C[C@H](C)[C@H](CC[C@@H]3C[C@@H](O)CC(=O)O3)[C@H]21 [Lovastatin] | 23200 ± 2200
31 | Cc1cc(CC(C)CC(C)(C)C)n(O)c(=O)c1 (stereo not drawn) [Piroctone Olamine] | 922 ± 360
32 | N=C(N)NC(=N)N1CCOCC1 [Moroxydine HCl] | 24600 ± 1900
33 | CN(C)c1cc(NC(=O)CNC(C)(C)C)c(O)c2c1C[C@H]1C[C@H]3[C@H](N(C)C)C(O)=C(C(N)=O)C(=O)[C@@]3(O)C(O)=C1C2=O [Tigecycline] | 19400 ± 4200

Some of the entries so far, in CSV form:
Row,Structure (SMILES),imaged cell count per well
2,Cc1c(S(=O)(=O)O)oc2c1C(=O)C(=O)c1c-2ccc2c1CCCC2(C)C [Tanshinone IIA sulfonate (sodium)],15900 ± 5900
3,COc1ccc2c3c1O[C@H]1C[C@@H](O)C=C[C@@]31CCN(C)C2 [Galanthamine],21200 ± 1800
4,CN(CCOc1ccc(NS(C)(=O)=O)cc1)CCc1ccc(NS(C)(=O)=O)cc1 [Dofetilide],26100 ± 5100
5,Cc1cccc(C)c1NC(=O)C1CCCCN1C (stereo not drawn) [Mepivacaine],23300 ± 12000
6,CCCCCCCN(CC)CCCC(O)c1ccc(NS(C)(=O)=O)cc1 (stereo not drawn) [Ibutilide Fumarate],22600 ± 5600
7,CO/N=C(\C(=O)N[C@@H]1C(=O)N2C(C(=O)O)=C(COC(N)=O)CS[C@H]12)c1ccco1 [Cefuroxime sodium],26700 ± 500
